We go through 22 compounds from PubChem BioAssay AID308 (DTP/NCI, 2004).

The list is a part of this screen's results and no random one: it is rich in T/C values a quarter to a half above the control, in often repeated tests (any T/C) and in doses without a T/C. Further doses and runs are listed elsewhere. T/C gives the treated animals as a percentage of the vehicle group. Some doses have a count of surviving animals in place of a T/C: the source files T/C as zero there, which appears to mark a toxic dose or a test without result, not a measured value. Some survivor counts are full or nearly so, which does not show that the dose was tolerated: the source hardly ever lists a survival T/C far under the control, and the zero likely stands for such cases as well. Counts of survivors are from the toxicity check (mostly the fifth day) where no day follows; animals may have died later. Schedule codes are those of the source, read here as Q, the interval in days (D) or hours (H), X, the number of doses. Some schedule codes hold Z or #, which are not explained here. Some entries were tested several times; the results are listed from low to high. For survival time, the PubChem record calls one and a half times the control and up active, and a quarter to a half above the control has no call in these data; cut-offs in other NCI protocols can differ. Marks such as (2×) stand for listed records that agree. Some T/C values are followed by the survivors on the day toxicity was checked, most often the fifth; where none is given, no animal had died by that day.

The assay relates to BDF1 mice, L1210 6-MP/6-TG resistant leukemia ip, survival T/C. Kind of assay: NCI In Vivo Anticancer Drug Screen. Data for tumor model L1210 Leukemia resistant to 6-MP and 6-Thioguanine; NSC 755, NSC 752 (intraperitoneal) in B6D2F1 (BDF1) mice. The settings on record: T/C endpoint: mean survival time, higher T/C = longer survival. Here is the method:
The antitumor activity of compounds was measured in mice bearing transplantable tumors. Survival or tumor size were measured and the results are expressed as the measurement made in the treated group (T) divided by the measurement made in the vehicle treated control group (C). The tumor model used in this assay is L1210 Leukemia resistant to 6-MP and 6-Thioguanine; NSC 755, NSC 752 (intraperitoneal) in B6D2F1 (BDF1) mice

Where [1] appears, read: dose: 25.0 mg/kg/injection, schedule: Q01DX Z (ip), vehicle: saline.
Where [2] appears, read: dose: 500.0 mg/kg/injection, schedule: Q01DX Z (ip), vehicle: carboxymethylcellulose (CMC).
The mark [3] stands for this setting: dose: 37.5 mg/kg/injection, schedule: Q01DX Z (ip), vehicle: carboxymethylcellulose (CMC).
[4] abbreviates: dose: 50.0 mg/kg/injection, schedule: Q01DX Z (ip), vehicle: carboxymethylcellulose (CMC).
The mark [5] stands for this setting: dose: 75.0 mg/kg/injection, schedule: Q01DX Z (ip), vehicle: carboxymethylcellulose (CMC).
Where [6] appears, read: dose: 250.0 mg/kg/injection, schedule: Q01DX Z (ip), vehicle: carboxymethylcellulose (CMC).
[7] abbreviates: dose: 375.0 mg/kg/injection, schedule: Q01DX Z (ip), vehicle: carboxymethylcellulose (CMC).

With `Nc1ncnc2c1ncn2C(C=O)OC(C=O)CO` (configuration not stated), the T/C was 137 % of control (dose: 6.0 mg/kg/injection, schedule: Q01DX015 (ip), vehicle: saline); 127 % of control [4 of 6 alive] (dose: 20.0 mg/kg/injection, schedule: Q01DX015 (ip), vehicle: saline); 130 % of control under setting [1]. In addition, the survivor count reads like this: (dose: 30.0 mg/kg/injection, schedule: Q01DX015 (ip), vehicle: saline) 2 of 6; (dose: 45.0 mg/kg/injection, schedule: Q01DX015 (ip), vehicle: saline) 6 of 6; (dose: 67.0 mg/kg/injection, schedule: Q01DX015 (ip), vehicle: saline) 1 of 6; (dose: 96.0 mg/kg/injection, schedule: Q01DX015 (ip), vehicle: saline) 1 of 10; (dose: 100.0 mg/kg/injection, schedule: Q01DX Z (ip), vehicle: saline) 0 of 7.

For `O=c1[nH]cnc2c1nnn2C1OC(CO)C(O)C1O` (configuration not stated), the T/C was 138 and 146 % of control (dose: 76.0 mg/kg/injection, schedule: Q01DX009 (ip), vehicle: saline); 140 % of control (dose: 114.0 mg/kg/injection, schedule: Q01DX009 (ip), vehicle: saline); 139 % of control (dose: 171.0 mg/kg/injection, schedule: Q01DX009 (ip), vehicle: saline).

`CCC1(Sc2ncnc3nc[nH]c23)C(=O)NC(=O)NC1=O`: the survivor count (dose: 400.0 mg/kg/injection, schedule: Q01DX010 (ip), vehicle: alkali diluted with saline) was 6 of 6.

`C=C(C)CSc1ncnc2nc[nH]c12`: the survivor count (dose: 500.0 mg/kg/injection, schedule: Q01DX015 (ip), vehicle: other) is 1 of 6.

Take `O=C(OCC1OC(n2cnc3c(=S)nc[nH]c32)C(OC(=O)c2ccc([N+](=O)[O-])cc2)C1OC(=O)c1ccc([N+](=O)[O-])cc1)c1ccc([N+](=O)[O-])cc1` (configuration not stated): the survivor count is, setting by setting: (dose: 37.5 mg/kg/injection, schedule: Q01DX015 (ip), vehicle: other) 6 of 6; (dose: 100.0 mg/kg/injection, schedule: Q01DX Z (ip), vehicle: other) 7 of 7; (dose: 200.0 mg/kg/injection, schedule: Q01DX Z (ip), vehicle: other) 7 of 7.

Turning to `CS(=O)(=O)OCC(O)C(O)COS(C)(=O)=O` (configuration not stated), the T/C under setting [2] is 133 % of control.

`CN(C)c1ccc(/C=C\c2ccnc3ccccc23)cc1`: the survivor count by setting is: (dose: 25.0 mg/kg/injection, schedule: Q01DX Z (ip), vehicle: carboxymethylcellulose (CMC)) 6 of 6; under setting [3], 6 of 6; under setting [4], 6 of 6; under setting [5], 5 of 6.

For `CNS(=O)(=O)c1ncnc2nc[nH]c12`, the T/C reads like this: (dose: 21.0 mg/kg/injection, schedule: Q01DX Z (ip), vehicle: carboxymethylcellulose (CMC)) 130 % of control [5 of 6 alive]; (dose: 47.0 mg/kg/injection, schedule: Q01DX Z (ip), vehicle: carboxymethylcellulose (CMC)) 142 % of control.

For the compound `CN(C)/N=N/c1nc[nH]c1C(N)=O`, under “dose: 100.0 mg/kg/injection, schedule: Q01DX015 (ip), vehicle: carboxymethylcellulose (CMC)”, the T/C was 129 % of control. For the same compound, the survivor count (dose: 400.0 mg/kg/injection, schedule: Q01DX015 (ip), vehicle: carboxymethylcellulose (CMC)) is given as 4 of 6.

For the compound `C=CC(CN1CC1)OC(C)=O` (configuration not stated), the T/C by setting is: (dose: 1.5 mg/kg/injection, schedule: Q01DX Z (ip), vehicle: saline) 125 % of control; (dose: 6.0 mg/kg/injection, schedule: Q01DX Z (ip), vehicle: saline) 139 % of control; (dose: 10.0 mg/kg/injection, schedule: Q01DX Z (ip), vehicle: saline) 131 % of control. The survivor count (dose: 20.0 mg/kg/injection, schedule: Q01DX Z (ip), vehicle: saline) is given as 6 of 6 and the survivor count (dose: 30.0 mg/kg/injection, schedule: Q01DX Z (ip), vehicle: saline) is 5 of 6.

On to `c1nc(SC2=NCCN2)c2[nH]cnc2n1`, for which the survivor count was 6 of 6 under setting [1] and 6 of 6 (dose: 50.0 mg/kg/injection, schedule: Q01DX Z (ip), vehicle: saline).

`Nc1nc(SCc2ccccc2)c2[nH]cnc2n1`: the survivor count runs as follows: (dose: 15.0 mg/kg/injection, schedule: Q01DX Z (ip), vehicle: carboxymethylcellulose (CMC)) 6 of 6; under setting [4], 6 of 6; under setting [5], 6 of 6; (dose: 100.0 mg/kg/injection, schedule: Q01DX Z (ip), vehicle: carboxymethylcellulose (CMC)) 6 of 6.

`Ic1ncnc2nc[nH]c12`: the survivor count under setting [2] was 1 of 6.

Consider `c1nc(SC2CCCC2)c2[nH]cnc2n1`, for which the survivor count (dose: 640.0 mg/kg/injection, schedule: Q01DX Z (ip), vehicle: carboxymethylcellulose (CMC)) was 2 of 6.

Consider `CSc1ncnc2nc[nH]c12`, for which the survivor count runs as follows: (dose: 180.0 mg/kg/injection, schedule: Q01DX001 (ip), vehicle: carboxymethylcellulose (CMC)) 6 of 10; under setting [6], 2 of 6; (dose: 270.0 mg/kg/injection, schedule: Q01DX001 (ip), vehicle: carboxymethylcellulose (CMC)) 6 of 10; (dose: 400.0 mg/kg/injection, schedule: Q01DX001 (ip), vehicle: carboxymethylcellulose (CMC)) 0 of 9 and 2 of 10; (dose: 600.0 mg/kg/injection, schedule: Q01DX001 (ip), vehicle: carboxymethylcellulose (CMC)) 0 of 10.

Take `O=C(Nc1ccc(C2=NCCCN2)cc1)c1ccc(NC(=O)c2ccc(C3=NCCCN3)cc2)cc1`: the T/C (dose: 8.0 mg/kg/injection, schedule: Q01DX Z (ip), vehicle: carboxymethylcellulose (CMC)) is 142 % of control. For the same compound, the survivor count (dose: 32.0 mg/kg/injection, schedule: Q01DX Z (ip), vehicle: carboxymethylcellulose (CMC)) is given as 6 of 6.

Regarding `CN(Cc1cnc2nc(N)nc(N)c2n1)c1c(Cl)cc(C(=O)NC(CCC(=O)O)C(=O)O)cc1Cl` (configuration not stated), the T/C runs as follows: (dose: 15.0 mg/kg/injection, schedule: Q01DX015 (ip), vehicle: carboxymethylcellulose (CMC)) 139 % of control; (dose: 80.0 mg/kg/injection, schedule: Q01DX015 (ip), vehicle: carboxymethylcellulose (CMC)) 125 % of control; (dose: 32.5 micrograms/kg/injection, schedule: Q01DX015 (ip), vehicle: carboxymethylcellulose (CMC)) 136 % of control.

Turning to `Nc1nc(SCc2ccccc2)c2ncn(C3OC(CO)CC3O)c2n1` (configuration not stated), for the setting “dose: 300.0 mg/kg/injection, schedule: Q01DX009 (ip), vehicle: other”, the survivor count was 6 of 6.

As for `O=C(Nc1ccc(C2=NCCN2)cc1)c1ccc(C(=O)Nc2ccc(C3=NCCN3)cc2)cc1`, the T/C is, setting by setting: (dose: 9.37 mg/kg/injection, schedule: Q01DX Z (ip), vehicle: carboxymethylcellulose (CMC)) 133 % of control; under setting [3], 138 % of control. Also, under setting [6], the survivor count is on record as 3 of 6.

As for `Cn1cnc2c(SCc3ccccc3)ncnc21`, the survivor count is, setting by setting: under setting [7], 6 of 6; under setting [2], 1 of 6.

For the compound `S=c1nc[nH]c2nc[nH]c12`, the T/C by setting is: (dose: 28.0 mg/kg/injection, schedule: Q01DX Z (ip), vehicle: carboxymethylcellulose (CMC)) 94, 95, 97, 107 % of control; (dose: 91.0 mg/kg/injection, schedule: Q01DX001 (ip), vehicle: carboxymethylcellulose (CMC)) 93, 95, 102, 104, 108 % of control (2×); (dose: 135.0 mg/kg/injection, schedule: Q01DX001 (ip), vehicle: carboxymethylcellulose (CMC), evaluated on day 45) 87, 99, 100, 102, 104, 105 % of control; (dose: 135.0 mg/kg/injection, schedule: Q01DX001 (ip), vehicle: carboxymethylcellulose (CMC), run until all animals had died) 100 and 105 % of control. The survivor count is, setting by setting: (dose: 56.0 mg/kg/injection, schedule: Q01DX Z (ip), vehicle: carboxymethylcellulose (CMC)) 6 of 6; (dose: 80.0 mg/kg/injection, schedule: Q01DX010 (ip), vehicle: alkali diluted with saline) 10 of 10.

On to `CCn1cnc2c(SC3CCCC3)ncnc21`, for which the survivor count by setting is: under setting [7], 6 of 6; under setting [2], 6 of 6.
